These are yes or no findings as the source states them, for the method shown. In cells and extracts the contact can be indirect. Some results given as binding are weak or reduced against the parent protein; the word gives no strength.

By UniProt entry, the sequences of proteins in these tests, tags left out.
UniProt Q14258: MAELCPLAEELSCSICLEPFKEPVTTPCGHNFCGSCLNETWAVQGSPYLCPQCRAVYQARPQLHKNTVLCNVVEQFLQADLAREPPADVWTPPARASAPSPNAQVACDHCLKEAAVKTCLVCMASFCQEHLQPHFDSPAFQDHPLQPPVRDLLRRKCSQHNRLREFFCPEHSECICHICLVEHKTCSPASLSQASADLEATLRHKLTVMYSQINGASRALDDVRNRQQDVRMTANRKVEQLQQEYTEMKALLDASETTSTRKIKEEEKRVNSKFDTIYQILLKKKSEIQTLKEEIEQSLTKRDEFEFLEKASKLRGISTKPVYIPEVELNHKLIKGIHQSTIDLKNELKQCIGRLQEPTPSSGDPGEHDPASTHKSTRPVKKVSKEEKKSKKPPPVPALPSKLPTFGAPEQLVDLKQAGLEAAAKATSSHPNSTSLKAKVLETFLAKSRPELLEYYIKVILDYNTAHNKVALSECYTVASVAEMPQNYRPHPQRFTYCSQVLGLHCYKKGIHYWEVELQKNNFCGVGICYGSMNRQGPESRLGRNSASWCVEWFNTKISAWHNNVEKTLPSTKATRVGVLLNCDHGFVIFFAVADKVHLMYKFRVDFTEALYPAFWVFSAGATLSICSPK

Results on 2 substances are retold here after paper PMC12594597.

Assay [1] concerns the target T1, Carnitine Palmitoyltransferase 1A (CPT1A) (human (endogenous in THP-1)) (UniProt P50416).
T1 sequence: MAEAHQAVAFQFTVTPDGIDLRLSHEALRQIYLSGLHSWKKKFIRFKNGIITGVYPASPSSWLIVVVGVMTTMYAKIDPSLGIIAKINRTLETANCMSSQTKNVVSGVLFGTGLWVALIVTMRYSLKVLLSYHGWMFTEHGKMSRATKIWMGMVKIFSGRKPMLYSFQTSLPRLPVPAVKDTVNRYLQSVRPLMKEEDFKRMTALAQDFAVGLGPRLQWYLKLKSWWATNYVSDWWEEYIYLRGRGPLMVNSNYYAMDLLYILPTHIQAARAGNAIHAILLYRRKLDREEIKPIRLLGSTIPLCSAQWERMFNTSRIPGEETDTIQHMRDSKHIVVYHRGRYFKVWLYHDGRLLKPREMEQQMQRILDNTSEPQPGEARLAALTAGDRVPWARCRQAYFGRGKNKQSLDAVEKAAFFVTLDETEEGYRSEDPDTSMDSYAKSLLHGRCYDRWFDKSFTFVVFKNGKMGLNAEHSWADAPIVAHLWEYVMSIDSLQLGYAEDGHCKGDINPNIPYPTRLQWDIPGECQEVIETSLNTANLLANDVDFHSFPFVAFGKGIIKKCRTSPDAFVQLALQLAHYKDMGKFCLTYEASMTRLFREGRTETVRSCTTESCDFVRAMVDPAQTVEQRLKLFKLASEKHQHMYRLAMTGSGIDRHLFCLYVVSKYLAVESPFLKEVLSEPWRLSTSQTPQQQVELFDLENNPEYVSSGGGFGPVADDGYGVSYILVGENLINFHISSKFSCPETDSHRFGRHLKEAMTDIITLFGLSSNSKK
As to the kind of experiment: co-IP; endogenous proteins in THP-1-differentiated macrophages; lysates with specific antibodies overnight at 4 °C, protein A/G beads, immunoblot. A general note: In western blotting, separated proteins are transferred to a membrane and probed.

The target in assay [2] is T2, CPT1A overexpressed in HEK293T cells (human) (UniProt P50416).
T2 sequence: T1 sequence
As to the kind of experiment: co-IP; HEK293T cells transfected with or without Flag-DPP7, or with different concentrations of exogenous Flag-DPP7; binding of TRIM25 to CPT1A by immunoblot.

In the case of “TRIM25 (tripartite motif-containing 25) (from UniProt Q14258 1-630)”, the binding entry in assay [1] was “binds”.

Turning to “TRIM25 in HEK293T cells (from UniProt Q14258 1-630)”, the binding entry in assay [2] is “binds”.
